Some of these results come from one statement about several compounds together. At least one compound was matched to its structure with a doubt left. Some compounds share one range, which may span the group rather than tell each member.
Assay: Storage stability of LNPs (time-dependent DLS, DiO/DiI FRET)
Format: physicochemical
Settings: five days of storage under room temperature
Experimental: The morphologies of LNPs were further studied by the transmission electron microscopy (TEM). […] Subsequently, the stability of LNPs thus prepared was examined by DLS and fluorescence measurements.
The cell (HeLa and HeLa-DsRed cell lines) internalization studies were conducted using small molecular hydrophobic (nile red) and hydrophilic (calcein) fluorescent dyes and macromolecular fluorescent recombinant protein ((−30)GFP-Cre) loaded OCholB LNPs. The stabilities of cargo-loaded LNPs were examined at first using time-dependent DLS and fluorescence measurements.

SMILES | relative size change
CCCCCCCCCCCCCCOCCOC(=O)CCN(CCC(=O)OCCOCCCCCCCCCCCCCC)CCN1CCCC1 [Lipidoid 76-O17O] | < 15%
CCCCCCCCCCCCCCSCCOC(=O)CCN(CCC(=O)OCCSCCCCCCCCCCCCCC)CCN1CCCC1 [Lipidoid 76-O17S] | < 15%

Assay: Thiol-triggered size variation of OCholB LNPs (DTT, cysteine; DLS)
Format: physicochemical
Settings: 10 mM DTT, 24 h
From the text: The thiol-trigged degradation and dissociation of the OCholB LNPs were studied by time-dependent DLS measurements and TEM observation. […] The disruption of the vesicle structure is considered to be resulted from the thiol-exchange and disulfide bond cleavage reactions of OCholB lipidoids. We next investigated whether the thiol-containing molecules (e.g. albumin, cysteine, homocysteine, cysteinylglycine, etc.) in the serum may induce the structural disintegration of these disulfide bond-containing LNPs. The stabilities of LNPs in the presence of 20 μM of L-cysteine (Cys), which mimics the free thiols on the small- and macromolecules presented in the serum, were examined. […] While the degrees of size changes vary between lipidoids with different amine head groups, all lipidoids were more responsive to DTT (modeling intracellular conditions) than to Cysteine (modeling conditions in the blood serum).

SMILES | increase in averaged hydrodynamic diameter
CCN(CC)CCCN(CCC(=O)OCCSSCCNC(=O)OC1CCC2(C)C(=CCC3C2CCC2(C)C(C(C)CCCC(C)C)CCC32)C1)CCC(=O)OCCSSCCNC(=O)OC1CCC2(C)C(=CCC3C2CCC2(C)C(C(C)CCCC(C)C)CCC32)C1 (stereo not drawn) [Lipidoid 81-OCholB] | 766.9%-1266.4
CC(C)CCCC(C)C1CCC2C3CC=C4CC(OC(=O)NCCSSCCOC(=O)CCN(CCC(=O)OCCSSCCNC(=O)OC5CCC6(C)C(=CCC7C6CCC6(C)C(C(C)CCCC(C)C)CCC76)C5)CCN5CCCC5)CCC4(C)C3CCC12C (stereo not drawn) [Lipidoid 76-OCholB] | 766.9%-1266.4
CC(C)CCCC(C)C1CCC2C3CC=C4CC(OC(=O)NCCSSCCOC(=O)CCN(CCC(=O)OCCSSCCNC(=O)OC5CCC6(C)C(=CCC7C6CCC6(C)C(C(C)CCCC(C)C)CCC76)C5)CCC5CCCN5C)CCC4(C)C3CCC12C (stereo not drawn) [Lipidoid 77-OCholB] | 766.9%-1266.4
CC(C)CCCC(C)C1CCC2C3CC=C4CC(OC(=O)NCCSSCCOC(=O)CCN(CCCN(C)C)CCC(=O)OCCSSCCNC(=O)OC5CCC6(C)C(=CCC7C6CCC6(C)C(C(C)CCCC(C)C)CCC76)C5)CCC4(C)C3CCC12C (stereo not drawn) [Lipidoid 80-OCholB] | 766.9%-1266.4
